{"sequences": {"note": "Amino acid sequences for entries named in this document (tags omitted). Residues count along the entry.", "UniProt O09100, 289-480 R398W": "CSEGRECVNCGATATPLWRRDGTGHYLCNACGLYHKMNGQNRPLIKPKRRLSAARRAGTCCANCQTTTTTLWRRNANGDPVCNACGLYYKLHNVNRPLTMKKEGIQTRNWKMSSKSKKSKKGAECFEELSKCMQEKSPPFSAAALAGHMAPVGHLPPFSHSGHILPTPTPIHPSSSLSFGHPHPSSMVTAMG", "UniProt O09100, 289-480": "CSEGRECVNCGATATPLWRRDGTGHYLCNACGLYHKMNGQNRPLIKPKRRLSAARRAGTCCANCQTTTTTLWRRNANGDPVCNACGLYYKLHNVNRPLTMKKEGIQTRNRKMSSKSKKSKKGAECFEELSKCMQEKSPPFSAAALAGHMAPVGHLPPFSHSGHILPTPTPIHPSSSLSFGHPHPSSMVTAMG", "UniProt O09100, 289-480 T354M": "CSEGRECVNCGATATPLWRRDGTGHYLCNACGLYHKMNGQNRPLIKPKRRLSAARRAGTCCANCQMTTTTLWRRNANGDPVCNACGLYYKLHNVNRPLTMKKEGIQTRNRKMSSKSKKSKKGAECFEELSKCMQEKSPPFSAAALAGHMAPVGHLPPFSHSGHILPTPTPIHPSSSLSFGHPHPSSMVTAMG"}, "source": "paper PMC9018821", "experiment_in_all_cases": "SPR", "key": {"G2WT + G2T354M": {"system": "G2WT + G2T354M", "conditions": "1:1 mixture, Biacore X100, Sensor chip SA, 1000 RU biotinylated dsDNA, blank reference cell, pH and temperature not stated, recombinant protein, label: 5'-biotin on sense strand"}, "G2WT + G2R398W": {"system": "G2WT + G2R398W", "conditions": "1:1 mixture, Biacore X100, Sensor chip SA, 1000 RU biotinylated dsDNA, blank reference cell, pH and temperature not stated, recombinant protein, label: 5'-biotin on sense strand"}, "G2R398W (mouse)": {"target": "G2R398W (mouse) (UniProt O09100)", "conditions": "text says KD 'lower', binding described as weak, Biacore X100, Sensor chip SA, 1000 RU biotinylated dsDNA, blank reference cell, pH and temperature not stated, recombinant protein, residues 289-480, label: 5'-biotin on sense strand, scale: fold weaker affinity than G2WT"}, "G2WT (mouse)": {"target": "G2WT (mouse) (UniProt O09100)", "conditions": "not in material, Biacore X100, Sensor chip SA, 1000 RU biotinylated dsDNA, blank reference cell, pH and temperature not stated, recombinant protein, residues 289-480, label: 5'-biotin on sense strand"}, "G2T354M (mouse)": {"target": "G2T354M (mouse) (UniProt O09100)", "conditions": "text says KD 'lower', binding described as weak, Biacore X100, Sensor chip SA, 1000 RU biotinylated dsDNA, blank reference cell, pH and temperature not stated, recombinant protein, residues 289-480, label: 5'-biotin on sense strand, scale: fold weaker affinity than G2WT"}}, "note": "Construct, isoform or probe ends are uncertain for at least one entry. For some of these results: Whether high values mean tight binding is not given here for every scale.", "data": [{"sequence": "GCGAGATAAGATAAGGCCTTG (double strand) [tandem GATA motif 21-mer]", "values": [{"measurement": "binding signal (fold increase of KD1 vs G2WT homodimer)", "setting": "G2WT + G2T354M; first phase, ka1 1.3-fold down, kd1 2-fold up", "value": 3}, {"measurement": "binding signal (fold increase of KD1 vs G2WT homodimer)", "setting": "G2WT + G2R398W; first phase, ka1 2.3-fold down, kd1 1.7-fold up", "value": 4}, {"measurement": "binding signal", "setting": "G2R398W (mouse)", "value": 8}, {"measurement": "binding result", "setting": "G2WT (mouse); bivalent two-phase binding, KD in figure table", "value": "binds"}, {"measurement": "binding signal", "setting": "G2T354M (mouse)", "value": 2.5}]}, {"sequence": "GCGCTCAGAGATAAGGCCTTG (double strand) [single GATA motif 21-mer]", "values": [{"measurement": "binding signal (fold KD difference from G2WT alone)", "setting": "G2WT + G2T354M; monovalent fit", "value": "< 2"}, {"measurement": "binding signal (fold KD difference from G2WT alone)", "setting": "G2WT + G2R398W; monovalent fit", "value": "< 2"}, {"measurement": "binding signal", "setting": "G2R398W (mouse)", "value": 10}, {"measurement": "binding result", "setting": "G2WT (mouse); KD in Fig. 7b table, monovalent fit", "value": "binds"}, {"measurement": "binding signal", "setting": "G2T354M (mouse)", "value": 4}]}]}
